Test results from article PMC10163288.
The other results are listed elsewhere or left out.

B1: il2ra_site1_1z92_normal_mot_73a3237f21306322153cb43486d2ff88_0001_1_af2_000000006_0001_34_49_H_._66959ead3e6c57cb3ef8243f3eb758e0_0001_1_0001_0000300041_0000001 … (protein)
chain: NDVEEELREAVEKNDEEELRRFIELLLKDAGDPELVRQLLKILVKRLGLPPEVLERLEELLEELT
B2: il2ra_site1_3nfp_sap_11_mot_HHH_b2_06502_000000163_0001_42_55_H_._HHH_b1_00250_0001_0000300024_0000001_0_0001_af2pred_0001_af2pred_1_swapped (protein)
chain: SEELVERFARIAVETNNPRTLRKLLEELEKFLGNPEEAEKLLREALEKAGLSPEEVEELLQEVKK
B3: il2ra_site1_1z92_normal_mot_01209686ea234b34325f918445e6eade_0001_af2_000000154_0001_18_33_H_._f9c37336de6f1513c893807100b70f62_0001_af2_0001_0000400024_0000001 … (protein)
chain: SVEEELEELLRKKLPPEEVRLIIRDLERLKEEYGDPEHALKALLLLLRKAGNPESAEVVEEVIRH
B4: il2ra_site2_3nfp_sap_24_mot_HHH_b2_06150_000000217_0001_39_53_H_._HHH_b1_06048_0001_0000600027_0000001_0_0001 (protein)
chain: SSSSDKAEEYLRAALELLKLAVEEGDEFAVKSLLEAIELMAEDRRDEEAEEIVEEVKELLSSSSS
B5: il2ra_site1_3nfp_normal_mot_a5af7fda9936c3448022740dda542bc7_0001_af2_000000171_0001_1_14_H_._2ddac98514d63a720a07c52076301d76_0001_0001_0000200028_0000001_0 (protein)
chain: SLEWAAERALELGDPLDLRHVIRALELAVERLGDPRAREALEIARKLLEEGNPEEAARVILELLR
B6: il2ra_site1_1z92_sap_8_mot_HHH_b2_03374_af2_000000101_0001_1_20_H_._HHH_b2_03665_0001_0000500035_0000001_0_0001 (protein)
chain: SSSSDNLEAIVKVLVRVARLSEEAEEELERLARELAERGVSALEIMRLLDELAVRLAEELSSSSS
B7: il2ra_site2_3nfp_sap_9_mot_HHH_b1_05381_af2_000000150_0001_1_19_H_._HHH_b1_03255_0001_0000200011_0000001_0_0001 (protein)
chain: SSSSDKSERYLELAVELIEEALEQGDPEAARSHIEAAKLAAEALGDEEVKERLEELEELADSSSS
B8: il2ra_site2_2erj_normal_mot_HHH_b2_01204_af2_000000056_0001_19_34_H_._HHH_b2_01388_0001_0000600058_0000001_0 (protein)
chain: SSSSDEELREIYELLVRLLQAIYEGDEEEAEKLLEEVRRVIEEANNENAEEHLRFLEQELKSSSS
B9: il2ra_site2_3nfp_sap_15_mot_HHH_b2_07083_000000061_0001_42_56_H_._09051a5a5815e8c4a7a718313fa04930_0001_af2_0001_0000100001_0000001_0_0001 (protein)
chain: SSSSDEERVEELLEEAREAREEGDPRKVLEILAEAAHIAFEANNPELFFRIAELAFELMQSSSSS
B10: il2ra_site1_1z92_normal_mot_01209686ea234b34325f918445e6eade_0001_af2_000000154_0001_18_33_H_._HEEHE_1797_0001_0000200025_0000001_0 (protein)
chain: DDEEAFAKDVEVVARLAGVPSVEVREENGKISVHVEGTDEAVKLAENYVRYVAEDAGLRVEVHTH
B11: il2ra_site1_1z92_sap_29_mot_HHH_b1_02756_000000071_0001_20_37_H_._HHH_b1_00020_0001_0000200011_0000001_0_0001_af2pred_dldesign_0_af2pred (protein)
chain: VTVEELLLAAVESRDDAALRDFIRLLLRDTKDPELARQLLRILVKRLGLPEETLERLLALLDELA
B12: il2ra_site1_2b5i_normal_mot_HHH_b1_02271_000000068_0001_1_16_H_._HHH_eva_0455_0001_0000300026_0000001_0_af2pred_dldesign_0_af2pred (protein)
chain: SSSSSSSNWRELLERAEEAFKAGDAAALEALLKEAKAAGLKKTAKTIERAIEEVRSESSSSSSSS
B13: il2ra_site1_3nfp_sap_17_mot_ems_3hC_836_0002_000000087_0001_24_40_H_._HHH_b1_08246_0001_0000200015_0000001_0_0001 (protein)
chain: SRILERFVEQAEKLGNPEFAEVVKILLEVLEQDPRLREEIDRIIRELVSGELPPEEAEELARRLK
B14: il2ra_site2_2erj_sap_15_mot_HHH_b1_03107_000000098_0001_39_52_H_._HHH_b2_05540_0001_0000100002_0000001_0_0001 (protein)
chain: SSSSDEEELLERVEELIERAKEENDNRLAWEALRVAVEIAELGDEEAARRAAELLLEFFRSSSSS
B15: il2ra_site1_3nfp_normal_mot_cc4219192d8ccd35c40e7b68f9a57604_0001_af2_000000124_0001_16_32_H_._HHH_b2_07250_0001_0000900010_0000001_0_af2pred_0001_1_af2pred_swa … (protein)
chain: SSSSDALEFVEELAEKAFENNDKKQLEALYKLLRRALEKHGNPEAEEVLEKVEELLRELQSSSSS
B16: il2ra_site2_3nfp_normal_mot_HHH_b2_01406_000000272_0001_41_55_H_._HHH_b2_05555_af2_0001_0000300006_0000001_0 (protein)
chain: SSSSSSTALFELVRELAEELGLSEEQLHELLQLAAELSQRGVDIEEIEEILEEVARKLSSSSSSS
B17: il2ra_site2_2erj_sap_32_mot_HHH_b2_01204_af2_000000051_0001_19_34_H_._HHH_b1_07035_0001_0001300037_0000001_0_0001 (protein)
chain: SSSSNEELAKSIERMAEQLLEAGDPENARAALETAIRVARWANDKEVAELLEELLEEVRRRSSSS
B18: il2ra_site1_2b5i_normal_mot_HHH_b2_04910_000000118_0001_1_19_H_._HHH_b1_04799_af2_0001_0000100001_0000001_0 (protein)
chain: SSSSDELAKEAVRLFHEADELDRRGDEEEAQKVLEEALEIAEEGNSRVLIRMIRVALENFSSSSS
B19: il2ra_site2_2erj_normal_mot_89dc1dc23437faef961419e82e151d9c_0001_000000098_0001_15_32_H_._HHH_eva_0181_0001_0000100002_0000001_0_af2pred_0001_af2pred_1_swapped (protein)
chain: SSSEEEREEVREELEEIAEELGISPEFVKIAEEAWRLAVEAGADEEFARRNARFVLEALWEGSSS

Target: il2ra, P01589
Assay: yeast display titration

Apparent Kd, inactive:
B1 no binding seen, B2 > 1210 nM, B3 no binding seen, B4 no binding seen, B5 no binding seen, B6 no binding seen, B7 no binding seen, B8 no binding seen, B9 no binding seen, B10 no binding seen, B11 no binding seen, B12 no binding seen, B13 no binding seen, B14 no binding seen, B15 no binding seen, B16 no binding seen, B17 no binding seen, B18 no binding seen, B19 no binding seen
